In Sander's compilation of Henry's law constants:

Assay: Henry solubility constant Hcp at 298.15 K (mol/(m3 Pa))

Structure (SMILES): CCCCCCCCCO [1-nonanol]
- Henry solubility constant Hcp (reference: Lei et al. (2007)): 0.14
- Henry solubility constant Hcp (reference: Shunthirasingham et al. (2013)): 0.11
